The whole screen tested about 360,000 compounds, of which about 9,100 (2.5%) were called active. This list was built around the results that the source calls inconclusive (neither active nor inactive); the mix of calls is not that of the screen. Cut-off read from the data, not from the text of the source: active = max response below about -50%; inconclusive = no clear call, values can overlap the other calls; inactive = above that.
These molecules were tested against D(3) dopamine receptor (Homo sapiens) (UniProt P35462) (assay: qHTS of D3 Dopamine Receptor Antagonist: qHTS). Conditions: D3R cells, DiscoveRx beta-arrestin luminescence, antagonist mode; hits give low values.
How it was run: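 Cells expressing the human receptor were seeded at 1500 cells/well, incubated overnight at 37 degrees C in 5% CO2, then exposed to library compounds with dopamine controls for 90 minutes at 37 degrees C before luminescent detection.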
% is set by controls: 0 for no effect and ±100 for the full control effect.

Protein sequences, listed by entry. Tags and fused reporters are not part of them.
UniProt P35462, whole entry, looked up: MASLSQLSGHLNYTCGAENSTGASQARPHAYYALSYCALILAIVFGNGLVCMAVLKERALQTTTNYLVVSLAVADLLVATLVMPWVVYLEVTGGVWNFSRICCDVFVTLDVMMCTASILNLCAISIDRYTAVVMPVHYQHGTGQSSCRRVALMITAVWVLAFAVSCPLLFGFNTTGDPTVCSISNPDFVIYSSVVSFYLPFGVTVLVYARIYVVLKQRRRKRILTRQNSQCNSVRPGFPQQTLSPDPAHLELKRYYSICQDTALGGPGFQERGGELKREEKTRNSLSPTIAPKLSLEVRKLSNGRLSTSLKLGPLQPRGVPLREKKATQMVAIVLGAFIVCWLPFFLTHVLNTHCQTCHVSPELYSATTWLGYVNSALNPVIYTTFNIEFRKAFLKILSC

Row | Structure (SMILES) | max response, negative = inhibition
1 | O=C(CN1CCN(c2ccccc2F)CC1)N1CCc2ccccc21 | active: -53.9%
2 | Cc1cccc(C)c1NC(=O)Cn1c(=O)c2cccn2c2ccccc21 | inconclusive: -34.9%
3 | O=CN1N=C(c2ccccc2)CC1c1ccc(Cl)cc1 (configuration not stated) | inconclusive: -48.4%
4 | O=C(Nc1ccc(-c2nc3cccnc3s2)cc1)C1CCCO1 (configuration not stated) | inactive: 5.73%
5 | C/C(=N\NC(=O)C(c1ccncc1)N1CCOCC1)c1ccc(Br)cc1 (configuration not stated) | inconclusive: -41.2%
6 | CC1(C)CC(=O)C=C(NC2=CC3OC(c4ccccc4)OCC3OC2=O)C1 (configuration not stated) | active: -53.7%
7 | C1CCN=C(Nc2nn[nH]n2)CC1 | inconclusive: -37.8%
8 | CCNC(=O)c1cc(Cl)ccc1OC | inactive: -6.92%
9 | O=C(CSc1nnc(COc2ccc(F)cc2)o1)N1c2ccccc2CCc2ccccc21 | inactive: 8.64%
10 | CC1CCN(C(=O)COC(=O)c2n[nH]c3ccccc23)CC1 | active: -53.5%
11 | O=C1C=C(c2ccc3c(c2)OCCO3)C[C@@H](c2ccc(F)cc2)C1 | inconclusive: -38.7%
12 | N/C(=C\C(=O)c1cc(Cl)ccc1O)C(Cl)(Cl)Cl | inconclusive: -35.8%
13 | COc1ccc(NC(=O)Cc2csc(NC(=O)Nc3ccccc3OC)n2)cc1 | inconclusive: -43.9%
14 | O=C(CNC(=O)c1cccc(F)c1)OCC(=O)N1CCCc2ccccc21 | inconclusive: -30.6%
15 | O=C(c1cc(COc2ccc(F)c(F)c2)on1)N1CCN(C/C=C/c2ccccc2)CC1 | inconclusive: -35.5%
16 | O=S(=O)(NCC(c1cccnc1)N1CCN(Cc2ccccc2)CC1)c1ccccc1 (configuration not stated) | inconclusive: -31.5%
17 | CCc1ccccc1NC(=O)C(CC)Sc1nc2cc3c(cc2c(=O)n1Cc1ccco1)OCO3 (configuration not stated) | inactive: -18%
18 | COc1ccc(OC)c(CN2CCN(Cc3ccc(OC)c(OC)c3OC)CC2)c1 | inconclusive: -44.6%
19 | CCOC(=O)CSc1nc2c(sc(=S)n2-c2ccccc2OC)c(=O)n1Cc1ccco1 | inactive: -26.3%
20 | COC(Cn1c2c(c3cc(C)ccc31)CCCC2NCc1ccccc1)OC (configuration not stated) | active: -76.4%
21 | Cc1c(C#N)c(O)n(CCO)c(=O)c1N=Nc1ccc(S(N)(=O)=O)cc1 | inconclusive: -33.2%
22 | CCC1CCCCN1C(=O)COC(=O)c1cccs1 (configuration not stated) | inconclusive: -30.2%

Retrieved by structure from the list above, 4 records:
Row | Structure (SMILES) | max response, negative = inhibition
13 | COc1ccc(NC(=O)Cc2csc(NC(=O)Nc3ccccc3OC)n2)cc1 | inconclusive: -43.9%
11 | O=C1C=C(c2ccc3c(c2)OCCO3)C[C@@H](c2ccc(F)cc2)C1 | inconclusive: -38.7%
16 | O=S(=O)(NCC(c1cccnc1)N1CCN(Cc2ccccc2)CC1)c1ccccc1 (configuration not stated) | inconclusive: -31.5%
17 | CCc1ccccc1NC(=O)C(CC)Sc1nc2cc3c(cc2c(=O)n1Cc1ccco1)OCO3 (configuration not stated) | inactive: -18%

More records follow.

Row | Structure (SMILES) | max response, negative = inhibition
23 | C/C=C(\C)C(=O)OC1[C@H](OC(C)=O)C2(CO)C(CC1(C)C)C1=CCC3C4(C)CCC(O[C@@H]5O[C@H](C(=O)O)[C@@H](O[C@@H]6O[C@H](CO)[C@@H](O)[C@H](O)[C@H]6O)[C@H](O)[C@H]5O[C@H]5O[C@H](CO)[C@@H](O)[C@H](O)[C@H]5O)[C@](C)(CO)C4CCC3(C)[C@]1(C)C[C@H]2O (some centres not stated) | active: -121%
24 | O=C(COc1cccc(F)c1)N[C@@H](Cc1ccccc1)c1nc2ccccc2[nH]1 | inactive: -5.82%
25 | COc1ccc(CCN2C(=O)CSC2c2ccc(OC)c(OC)c2)cc1OC (configuration not stated) | inactive: 19.1%
26 | CCN(CC)S(=O)(=O)c1ccc(Cc2ncc(C(F)(F)F)cc2Cl)s1 | inconclusive: -33.2%
27 | c1ccc(COc2ccc(CNCc3cccnc3)cc2)cc1 | inactive: -4.49%
28 | CC(=O)c1ccc(CCCc2ccc(C(C)=O)cc2)cc1 | inconclusive: -35.2%
29 | CC(OC(=O)/C(C#N)=C/c1ccc(N(C)C)cc1)C(=O)N(C)Cc1ccccc1 (configuration not stated) | inactive: 20.1%
30 | COc1ccc(N2CCN(C3CCCN(Cc4ccc(F)c(F)c4)C3)CC2)cc1 (configuration not stated) | inconclusive: -44.6%
31 | O=C(CCNS(=O)(=O)c1cccc2nsnc12)N1CCc2ccccc21 | inconclusive: -44.3%
32 | CCOC(=O)C1=C(C)N=C2SC(C)C(=O)N2C1/C=C/c1ccccc1OC (configuration not stated) | inconclusive: -30%
33 | CC(=O)N1CCOc2ccc(S(=O)(=O)NCc3ccccc3Cl)cc21 | inactive: -6.09%
34 | COc1ccc(C(=O)Nc2ccnn2C2CCN(CCC(C)c3ccc(C)o3)CC2)cc1 (configuration not stated) | inconclusive: -33.4%
35 | CCCCn1c(NCc2ccc3c(c2)OCO3)nc2ccccc21 | inconclusive: -33.7%
36 | COc1ccc(C2CC(=O)C3=C(C2)Nc2ccccc2NC3c2coc3ccccc3c2=O)cc1OC (configuration not stated) | inconclusive: -34.4%
37 | O=C(CSCc1nc2ccccc2[nH]1)N1CCN(c2cccc(Cl)c2)CC1 | inconclusive: -36.1%
38 | COc1ccccc1NS(=O)(=O)c1ccc(OC)c([N+](=O)[O-])c1 | inactive: -18.1%
39 | CC(=O)c1c(C)n([O-])c2cc(C)ccc2[n+]1=O | active: -51%
40 | Cc1cc(C(=O)N(C)Cc2ccc(Br)cc2)no1 | inconclusive: -30.8%
41 | Nc1nc2nc(-c3ccccc3)cc(C(F)(F)F)c2s1 | inactive: -8.14%
42 | CCn1nc(C)c(/C=C/C(=O)Nc2ccc(C)cc2C)c1C | inconclusive: -49.3%
43 | O=C1CC(/C=C/c2ccc([N+](=O)[O-])cc2)=Nc2ccccc2N1 | inconclusive: -49.1%
44 | O=C(Cn1nc(-c2ccccc2)c2ccccc2c1=O)Nc1cccnc1 | inconclusive: -34.8%

Row | Structure (SMILES) | max response, negative = inhibition
45 | Cc1ccccc1OCCOCCN1CCCCCC1 | inconclusive: -49.2%
46 | CC(Oc1ccc(C#N)cc1)C(=O)Nc1ccc(-n2cnnn2)cc1 (configuration not stated) | inactive: 0%
47 | Cc1ccccc1-n1cnc2c(sc3nc(N4CCOCC4)c4c(c32)CCCC4)c1=O | inconclusive: -40.1%
48 | CCC(C)Nc1ccc(NC(C)CC)cc1 (configuration not stated) | active: -50.9%
49 | CC(CN(C)Cc1ccccc1)OC(=O)c1cccs1 (configuration not stated) | active: -76.4%
50 | CCC(=O)Nc1ccc(C(=O)Nc2cccnc2)cc1 | inconclusive: -32.8%
51 | Cc1ccc2c(c1)-c1ccccc1S(=O)(=O)N2 | inactive: 6.87%
52 | Cc1nnc(SCC(=O)NC(C)c2ccccc2)[nH]c1=O (configuration not stated) | inconclusive: -39.4%
53 | CCC[C@H]1CN(Cc2cccnc2)C(=O)[C@@H]1CC(=O)Nc1ccc(Br)cc1 | inconclusive: -30.2%
54 | CCOC(=O)C1(CCOc2ccccc2)CCN(Cc2cnc(C)[nH]2)CC1 | inconclusive: -37.7%
55 | O=C(CSc1nnc2ccccn12)NNC(=O)c1cccc(Cl)c1 | inconclusive: -41.5%
56 | O=C(O)c1cccnc1SC1CC(=O)N(c2ccc(OC(F)F)cc2)C1=O (configuration not stated) | inconclusive: -36%
57 | O=C(CSc1nn(-c2ccccc2)c(=S)s1)Nn1cnnc1 | active: -84.9%
58 | Cc1csc2c(NC3CCN(Cc4ccccc4)CC3)ncnc12 | active: -81.3%
59 | Cc1ccc(C(C)C)c(OCCNCCc2ccccc2)c1 | inconclusive: -48.6%
60 | COC(=O)c1cccc(NC(=O)CC2C(=O)NCCN2C(=O)Nc2cc(C)cc(C)c2)c1 (configuration not stated) | inactive: 10.3%
61 | CC(=O)c1ccc(NC(=O)CSc2nnc(-c3ccco3)c(-c3ccco3)n2)cc1 | inconclusive: -35.4%
62 | C#CC(C)(C)NC(=O)c1ccccc1OC | inconclusive: -39.5%
63 | COc1ccccc1CCN1CCCC(CN(C)C(=O)c2ccoc2)C1 (configuration not stated) | inconclusive: -33.4%
64 | O=C(Oc1ccccc1)c1c(Cl)cccc1P(=O)(O)O | inconclusive: -36.6%
65 | CC1(c2ccccc2Cl)NC(=O)N(CC(=O)N2CCc3ccccc3C2)C1=O (configuration not stated) | inconclusive: -34.7%
66 | CCCCN(C)CCCNC(=O)c1cccc(N2CCCC2=O)c1 | inconclusive: -40.7%

Sorted by molecular weight (falling): part of the list above
Row | Structure (SMILES) | max response, negative = inhibition
65 | CC1(c2ccccc2Cl)NC(=O)N(CC(=O)N2CCc3ccccc3C2)C1=O (configuration not stated) | inconclusive: -34.7%
57 | O=C(CSc1nn(-c2ccccc2)c(=S)s1)Nn1cnnc1 | active: -84.9%
48 | CCC(C)Nc1ccc(NC(C)CC)cc1 (configuration not stated) | active: -50.9%

The results go on:

Row | Structure (SMILES) | max response, negative = inhibition
67 | CCOC(=O)C(=O)c1csc(NC(=O)COc2ccc(N(C)S(=O)(=O)c3ccc(F)cc3)cc2)n1 | inconclusive: -48.4%
68 | Cc1ccnc(NC(=O)C2CCCN(S(=O)(=O)c3cnc[nH]3)C2)c1 (configuration not stated) | inconclusive: -36.5%
69 | COc1cccc(/C=N/N2C(=O)NC3(CCCCC3)C2=O)c1O | inconclusive: -46.7%
70 | Cc1onc(-c2ccccc2)c1CNC(=O)Nc1cccc(Cl)c1 | inconclusive: -31.8%
71 | CCn1c(O)c(/C=N/n2cnnc2)sc1=S | inconclusive: -39.8%
72 | CCOC(=O)c1ccc(NCc2ccc(N(C)C)cc2)cc1 | inconclusive: -42.8%
73 | Cn1cccc1/C=N/n1cnnc1 | inconclusive: -34.8%
74 | CCCCN(C)CCNC(=O)c1ccc(Cn2c(=S)[nH]c3ccc(Br)cc3c2=O)cc1 | inconclusive: -31.4%
75 | O=C(NCCCN1CCN(Cc2ccccc2)CC1)C1CCN(c2nnc(-n3cccc3)s2)CC1 | inactive: 0%
76 | O=[N+]([O-])c1cc([N+](=O)[O-])c2c(=Nc3ccccc3)n(-c3ccccc3)n(O)c2c1 | inconclusive: -32.8%
77 | Cc1ccc(S(=O)(=O)N(C)c2ccc(OCC(=O)OCc3nnc(-c4ccccc4)o3)cc2)cc1 | inconclusive: -37%
78 | COc1ccc(S(=O)(=O)N2CCC(N3CCN(c4ccccc4OC)CC3)CC2)cc1 | inconclusive: -31.6%
79 | CCC(C#CCN1CCCCC1)(CC)OCCC#N | active: -55.9%
80 | CCN(CC)CC(=O)N1c2ccccc2Sc2ccccc21 | inactive: -16.4%
81 | O=C(Nc1sc2c(c1C(=O)O)CCCC2)c1cccs1 | inactive: -5.42%
82 | COCCNC(=O)Nc1ccc2nc(-c3cccs3)c(-c3cccs3)nc2c1 | inactive: 8.46%
83 | C[C@H](CO)N1C[C@H](C)[C@H](CN(C)C(=O)Nc2ccc(C(F)(F)F)cc2)Oc2ncc(Br)cc2C1=O | inconclusive: -43.1%
84 | N#C/C(=C\c1c(N2CCCCCC2)nc2ccccn2c1=O)C(=O)NC1CCS(=O)(=O)C1 (configuration not stated) | inconclusive: -46.6%
85 | CC(C)[C@@H](C(=O)NC1CCCC1)N1C(=O)N2CCc3c([nH]c4ccccc34)[C@@]2(C)C1=O | inconclusive: -45%
86 | Cc1ccc(-c2nn(CC(=O)O)c(=O)c3ccccc23)cc1 | inconclusive: -45.5%
87 | O=C(CCCN1C(=O)/C(=C\c2cccs2)SC1=S)Nc1ccccc1O | inconclusive: -32.2%

Reference: PubChem BioAssay AID652054 (National Center for Advancing Translational Sciences (NCATS), 2013)
